In patent US20250339551A1 (HANGZHOU SEEHE BIOTECHNOLOGY CO., LTD, priority 2023, published 2025):

Test: general procedure: hybrid (solid and solution phase) peptide synthesis; 2-chlorotrityl chloride resin; HOBt/DIC
Details: conjugation step
“(37S,45S)-37-(4-(2,5-dioxo-2,5-dihydro-1H-pyrrol-1-yl)butanamido)-45-” showed a conjugation yield of 97%.
With “((2R,3R,5R)-5-(4-amino-2-oxopyrimidin-1 (2H)-yl)-3-((tert-butyldimethylsilyl) oxy)-4,4-difluorotetrahydrofuran-2-yl)methyl di-tert-butyl phosphate” the conjugation yield was 7%.

Same assay, conditions: coupling step
For “1-(((2S,3S)-1-(((1R,3R)-1-acetoxy-1-(4-(((2R,4S)-4-carboxy-1-phenylpentan-2-yl)carbamoyl)thiazol-2-yl)-4-methylpentan-3-yl)(methyl)amino)-3-methyl-1-oxopentan-2-yl)amino)-N-(4-((S)-2-((tert-butoxycarbonyl)amino)propanamido)benzyl)-N,N,2-trimethyl-1-oxopropan-2-aminium”, the step yield was 54% yield.
“((S)-5-(tert-butoxy)-2-((S)-37-(4-(2,5-dioxo-2,5-dihydro-1H-pyrrol-1-yl) butanamido)-31,38-dioxo-2,5,8,11,14,17,20,23,26,29-decaoxa-32,39-diazatritetracontan-43-amido)-5-oxopentanoyl)-L-valine” gave a step yield of 65% yield.
With “benzyl (2S,4R)-4-(2-((6S,9R,11R,14S)-6-((S)-sec-butyl)-9-isopropyl-2,3,3,8,14,18,18-heptamethyl-4,7,13,16-tetraoxo-12,17-dioxa-2,5,8,15-tetraazanonadecan-11-yl)thiazole-4-carboxamido)-2-methyl-5-phenylpentanoate” the step yield was 82% yield.
With “benzyl (2S,4R)-4-(2-((6S,9R,11R,14S,17S)-6-((S)-sec-butyl)-9-isopropyl-2,3,3,8,14,17,21,21-octamethyl-4,7,13,16,19-pentaoxo-12,20-dioxa-2,5,8,15,18-pentaazadocosan-11-yl)thiazole-4-carboxamido)-2-methyl-5-phenylpentanoate” the step yield was 100% yield.
In the case of “tert-butyl (2S,4R)-5-(3-((5S,8S)-1-(9H-fluoren-9-yl)-5-isopropyl-8-methyl-3,6,9-trioxo-2-oxa-4,7,10-triazatetradecan-14-amido)-4-hydroxyphenyl)-4-((tert-butoxycarbonyl)amino)-2-methylpentanoate”, the step yield is reported as 100% yield.

Same assay, conditions: late stage modification step
In the case of “1-(((2S,3S)-1-(((1R,3R)-1-acetoxy-1-(4-(((2R,4S)-4-carboxy-1-phenylpentan-2-yl)carbamoyl)thiazol-2-yl)-4-methylpentan-3-yl)(methyl)amino)-3-methyl-1-oxopentan-2-yl)amino)-N-(4-((S)-2-((S)-2-aminopropanamido)propanamido)benzyl)-N,N,2-trimethyl-1-oxopropan-2-aminium”, the step yield is reported as 64% yield.
“(2S,4R)-4-(2-((6S,9R,11R,14S,17S)-6-((S)-sec-butyl)-9-isopropyl-2,3,3,8,14,17,21,21-octamethyl-4,7,13,16,19-pentaoxo-12,20-dioxa-2,5,8,15,18-pentaazadocosan-11-yl)thiazole-4-carboxamido)-2-methyl-5-phenylpentanoic acid” gave a step yield of 44% yield.
“(2S,4R)-4-(2-((6S,9R,11R,14S,17S)-17-amino-6-((S)-sec-butyl)-9-isopropyl-2,3,3,8,14-pentamethyl-4,7,13,16-tetraoxo-12-oxa-2,5,8,15-tetraazaoctadecan-11-yl)thiazole-4-carboxamido)-2-methyl-5-phenylpentanoic acid” showed a step yield of 100% yield.
With “(2S,4R)-5-(3-((5S,8S)-1-(9H-fluoren-9-yl)-5-isopropyl-8-methyl-3,6,9-trioxo-2-oxa-4,7,10-triazatetradecan-14-amido)-4-hydroxyphenyl)-4-amino-2-methylpentanoic acid” the step yield was 100% yield.
“benzyl (2S,4R)-4-(2-((1R,3R)-3-((2S,3S)-2-(2-(dimethylamino)-2-methylpropanamido)-N,3-dimethylpentanamido)-1-hydroxy-4-methylpentyl)thiazole-4-carboxamido)-2-methyl-5-phenylpentanoate” showed a step yield of 85% yield.
For “benzyl (2S,4R)-4-(2-((6S,9R,11R,14S)-14-amino-6-((S)-sec-butyl)-9-isopropyl-2,3,3,8-tetramethyl-4,7,13-trioxo-12-oxa-2,5,8-triazapentadecan-11-yl)thiazole-4-carboxamido)-2-methyl-5-phenylpentanoate”, the step yield was 100% yield.
Work on “perfluorophenyl (37S,45S)-37-(4-(2,5-dioxo-2,5-dihydro-1H-pyrrol-1-yl) butanamido)-45-” yielded a step yield of 100%.

Same assay, conditions: whole synthesis
“((S)-2-((S)-37-((((9H-fluoren-9-yl)methoxy)carbonyl)amino)-31,38-dioxo-2,5,8,11,14,17,20,23,26,29-decaoxa-32,39-diazatritetracontan-43-amido)-5-(tert-butoxy)-5-oxopentanoyl)-L-alanyl-L-alanine” gave a crude yield of 96% yield.
“((S)-2-((S)-37-((((9H-fluoren-9-yl)methoxy)carbonyl)amino)-31,38-dioxo-2,5,8,11,14,17,20,23,26,29-decaoxa-32,39-diazatritetracontan-43-amido)-5-(tert-butoxy)-5-oxopentanoyl)-L-valine” showed a crude yield of 84% yield.
For “((S)-5-(tert-butoxy)-2-((S)-37-(4-(2,5-dioxo-2,5-dihydro-1H-pyrrol-1-yl) butanamido)-31,38-dioxo-2,5,8,11,14,17,20,23,26,29-decaoxa-32,39-diazatritetracontan-43-amido)-5-oxopentanoyl)-L-alanyl-L-alanine”, the crude yield was 100% yield.

Test: Fmoc solid-phase peptide synthesis; 2-chlorotrityl chloride resin; HOBt/DIC
Details: whole synthesis
“((S)-7-((S)-7-(3-(2-(2-(4-(2,5-dioxo-2,5-dihydro-1H-pyrrol-1-yl)butanamido)ethoxy)ethoxy)propanamido)-2,2-dimethyl-4,8-dioxo-3,12,15-trioxa-9-azaoctadecan-18-amido)-2,2-dimethyl-4,8-dioxo-3,12,15-trioxa-9-azaoctadecan-18-oyl)-L-valine-CTC resin” gave a crude yield of 51%.
